Reference: paper doi:10.1101/2021.07.23.453505
These are yes or no findings as the source states them, for the method shown. In cells and extracts the contact can be indirect. Some entries that bind do so weakly or less than the wild type.

What was measured:
[1] = target: T1, STAT1 (human (endogenous in Calu-3)), P42224; assay: co-IP; conditions: remark: other sources report otherwise
T1 chain: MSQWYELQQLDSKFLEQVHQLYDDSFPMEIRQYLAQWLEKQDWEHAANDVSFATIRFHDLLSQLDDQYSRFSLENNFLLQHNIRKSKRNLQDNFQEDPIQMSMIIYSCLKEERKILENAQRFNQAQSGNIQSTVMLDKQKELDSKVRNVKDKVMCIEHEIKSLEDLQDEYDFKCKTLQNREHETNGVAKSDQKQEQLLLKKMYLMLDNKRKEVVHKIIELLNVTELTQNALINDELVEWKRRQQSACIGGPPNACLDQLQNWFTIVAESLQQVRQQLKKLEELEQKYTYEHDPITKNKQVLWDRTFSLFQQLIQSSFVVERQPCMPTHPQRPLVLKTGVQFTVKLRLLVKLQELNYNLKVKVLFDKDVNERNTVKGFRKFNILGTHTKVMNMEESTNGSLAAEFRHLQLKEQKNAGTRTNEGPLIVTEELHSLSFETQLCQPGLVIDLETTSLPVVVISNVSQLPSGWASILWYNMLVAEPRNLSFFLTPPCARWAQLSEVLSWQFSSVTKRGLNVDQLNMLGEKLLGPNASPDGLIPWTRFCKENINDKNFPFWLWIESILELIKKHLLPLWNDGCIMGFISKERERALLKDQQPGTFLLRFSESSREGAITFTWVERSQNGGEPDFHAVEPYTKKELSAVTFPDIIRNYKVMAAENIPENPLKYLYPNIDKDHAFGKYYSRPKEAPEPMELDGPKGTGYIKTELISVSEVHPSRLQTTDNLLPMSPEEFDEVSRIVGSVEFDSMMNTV

[2] = target: STAT2 (human (endogenous in Calu-3)), P52630; assay: co-IP; conditions: remark: other sources report otherwise

B1: IRF9, Q00978 1-393 (protein)
chain: MASGRARCTRKLRNWVVEQVESGQFPGVCWDDTAKTMFRIPWKHAGKQDFREDQDAAFFKAWAIFKGKYKEGDTGGPAVWKTRLRCALNKSSEFKEVPERGRMDVAEPYKVYQLLPPGIVSGQPGTQKVPSKRQHSSVSSERKEEEDAMQNCTLSPSVLQDSLNNEEEGASGGAVHSDIGSSSSSSSPEPQEVTDTTEAPFQGDQRSLEFLLPPEPDYSLLLTFIYNGRVVGEAQVQSLDCRLVAEPSGSESSMEQVLFPKPGPLEPTQRLLSQLERGILVASNPRGLFVQRLCPIPISWNAPQAPPGPGPHLLPSNECVELFRTAYFCRDLVRYFQGLGPPPKFQVTLNFWEESHGSSHTPQNLITVKMEQAFARYLLEQTPEQQAAILSLV
For B1, the binding [1] was “binds” and the binding [2] was “binds”.
